Results are given in words; binding and its absence hold for the method and conditions named. Some entries that bind do so weakly or less than the wild type.
Biological target: HA-CREB (UniProt P16220)
Test: re-ChIP

By UniProt entry, the sequences of proteins in these tests, tags left out.
UniProt P16220: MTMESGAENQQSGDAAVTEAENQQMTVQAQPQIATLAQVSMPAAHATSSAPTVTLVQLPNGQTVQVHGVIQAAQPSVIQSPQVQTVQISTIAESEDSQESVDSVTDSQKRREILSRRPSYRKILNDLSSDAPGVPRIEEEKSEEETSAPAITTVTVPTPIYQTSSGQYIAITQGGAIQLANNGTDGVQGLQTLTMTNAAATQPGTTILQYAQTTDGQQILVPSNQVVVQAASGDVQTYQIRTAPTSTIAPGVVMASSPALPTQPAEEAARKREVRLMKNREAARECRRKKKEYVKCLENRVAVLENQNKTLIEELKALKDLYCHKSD
UniProt P03165: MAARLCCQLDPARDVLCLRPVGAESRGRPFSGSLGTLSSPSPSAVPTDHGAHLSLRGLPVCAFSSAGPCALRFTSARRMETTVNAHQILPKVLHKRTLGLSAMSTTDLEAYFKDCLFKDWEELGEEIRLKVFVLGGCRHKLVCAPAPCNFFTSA

In the case of “GFP-HBx (hepatitis B virus X protein) (from UniProt P03165 1-154)”, the binding is reported as “binds”.

Reference: publication doi:10.1101/423194
